Data as given in PubChem BioAssay AID1159591 (NIAID, 2016).
Purpose: 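Which TLR signalling genes macrophages need for R848-driven Tnf promoter activity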. Cells: mouse RAW264.7 G9 macrophage reporter clone (GFP-p65, Tnf promoter-mCherry). Reagent: single siRNA against mouse genes. Time to read-out: cells assayed 48 to 72 hours after siRNA transfection; R848 for 16 hours before fixing. Conditions: R848 (TLR7/8 agonist) for 16 hours before fixation; dose not given. Detection: 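After R848 for 16 hours, nuclear Tnf promoter mCherry signal imaged minus background, scaled per plate by median and MAD into robust z against non-targeting controls, averaged across replicates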. Reading the numbers: mean Tnf reporter z-score: higher = stronger Tnf promoter reporter signal than controls. Call rule: 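Absolute z above 1, 1.5, 2 or 2.5 scores 25 up to 100; no stated active threshold; in practice calls fall at roughly z ≤ -1.5 or z ≥ 1.5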. Calls: active = reporter clearly up or down; inactive = little reporter change.
This is one part, drawn at random, of 756 deposited reagents. Over the whole deposit, 130 (17%) were called active. 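Active calls include both lower and higher Tnf reporter signal.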 A number with no mark means an inactive call. The numbers tell different reagents against one gene apart. The record does not give: the amount of reagent.

| mean Tnf reporter z-score | Target gene | reagent |
| --- | --- | --- |
| 0.886 | Ptpn6 (GeneID 15170) | 1 |
| 0.692 | Ptpn6 (GeneID 15170) | 2 |
| -0.911 | Ptpn6 (GeneID 15170) | 3 |
| -0.103 | Ptpn6 (GeneID 15170) | 4 |
| -1.08 | Ptpn6 (GeneID 15170) | 5 |
| -2.99 (active) | Ptpn6 (GeneID 15170) | 6 |
| -0.887 | Elk4 (GeneID 13714) | 1 |
| 0.24 | Elk4 (GeneID 13714) | 2 |
| -0.795 | Elk4 (GeneID 13714) | 3 |
| 0.304 | Elk4 (GeneID 13714) | 4 |
| -0.39 | Elk4 (GeneID 13714) | 5 |
| -0.766 | Elk4 (GeneID 13714) | 6 |
| -0.412 | Ifnar2 (GeneID 15976) | 1 |
| -0.553 | Ifnar2 (GeneID 15976) | 2 |
| 0.0225 | Ifnar2 (GeneID 15976) | 3 |
| 0.325 | Ifnar2 (GeneID 15976) | 4 |
| -0.256 | Ifnar2 (GeneID 15976) | 5 |
| -1.81 (active) | Ifnar2 (GeneID 15976) | 6 |
| -0.00904 | Il12a (GeneID 16159) | 1 |
| -0.814 | Il12a (GeneID 16159) | 2 |
| -1.01 | Il12a (GeneID 16159) | 3 |
| -0.842 | Il12a (GeneID 16159) | 4 |
| -0.878 | Il12a (GeneID 16159) | 5 |
| -0.2 | Il12a (GeneID 16159) | 6 |
| 0.563 | Peli1 (GeneID 67245) | 1 |
| 0.119 | Peli1 (GeneID 67245) | 2 |
| 0.668 | Peli1 (GeneID 67245) | 3 |
| 1.27 | Peli1 (GeneID 67245) | 4 |
| -0.961 | Peli1 (GeneID 67245) | 5 |
| -1.79 (active) | Peli1 (GeneID 67245) | 6 |
| -1.11 | Atf7 (GeneID 223922) | 1 |
| -0.268 | Atf7 (GeneID 223922) | 2 |
| -1.16 | Atf7 (GeneID 223922) | 3 |
| 0.644 | Atf7 (GeneID 223922) | 4 |
| -0.855 | Atf7 (GeneID 223922) | 5 |
| -1.53 (active) | Atf7 (GeneID 223922) | 6 |
| 0.779 | Map3k1 (GeneID 26401) | 1 |
| -1.37 | Map3k1 (GeneID 26401) | 2 |
| -1.52 (active) | Map3k1 (GeneID 26401) | 3 |
| 0.682 | Map3k1 (GeneID 26401) | 4 |
| -0.232 | Map3k1 (GeneID 26401) | 5 |
| 0.348 | Map3k1 (GeneID 26401) | 6 |
| -1.3 | Mapk3 (GeneID 26417) | 1 |
| 0.901 | Mapk3 (GeneID 26417) | 2 |
| -0.152 | Mapk3 (GeneID 26417) | 3 |
| -0.125 | Mapk3 (GeneID 26417) | 4 |
| -0.911 | Mapk3 (GeneID 26417) | 5 |
| 0.772 | Mapk3 (GeneID 26417) | 6 |
| -1.94 (active) | Myd88 (GeneID 17874) | 1 |
| -2.28 (active) | Myd88 (GeneID 17874) | 2 |
| -1.95 (active) | Myd88 (GeneID 17874) | 3 |
| -2.54 (active) | Myd88 (GeneID 17874) | 4 |
| -2.46 (active) | Myd88 (GeneID 17874) | 5 |
| -0.0764 | Myd88 (GeneID 17874) | 6 |
| -1.38 | Akt2 (GeneID 11652) | 1 |
| -0.713 | Akt2 (GeneID 11652) | 2 |
| -0.0111 | Akt2 (GeneID 11652) | 3 |
| -0.736 | Akt2 (GeneID 11652) | 4 |
| -0.709 | Akt2 (GeneID 11652) | 5 |
| -0.266 | Akt2 (GeneID 11652) | 6 |
| 0.962 | Irf9 (GeneID 16391) | 1 |
| -0.554 | Irf9 (GeneID 16391) | 2 |
| 0.551 | Irf9 (GeneID 16391) | 3 |
| 1.91 (active) | Irf9 (GeneID 16391) | 4 |
| 1.83 (active) | Irf9 (GeneID 16391) | 5 |
| -0.218 | Irf9 (GeneID 16391) | 6 |
| -2.22 (active) | Mapk13 (GeneID 26415) | 1 |
| -1.69 (active) | Mapk13 (GeneID 26415) | 2 |
| -0.731 | Mapk13 (GeneID 26415) | 3 |
| -0.889 | Mapk13 (GeneID 26415) | 4 |
| -0.405 | Mapk13 (GeneID 26415) | 5 |
| -0.49 | Mapk13 (GeneID 26415) | 6 |
| -0.209 | Fadd (GeneID 14082) | 1 |
| -1.3 | Fadd (GeneID 14082) | 2 |
| -1.34 | Fadd (GeneID 14082) | 3 |
| 1.07 | Fadd (GeneID 14082) | 4 |
| -0.511 | Fadd (GeneID 14082) | 5 |
| -0.564 | Fadd (GeneID 14082) | 6 |
| 0.102 | Ube2v1 (GeneID 66589) | 1 |
| -0.00361 | Ube2v1 (GeneID 66589) | 2 |
| -0.64 | Ube2v1 (GeneID 66589) | 3 |
| 0.163 | Ube2v1 (GeneID 66589) | 4 |
| 2.26 (active) | Ube2v1 (GeneID 66589) | 5 |
| -1.31 | Ube2v1 (GeneID 66589) | 6 |
| -0.966 | Sp1 (GeneID 20683) | 1 |
| -1.43 | Sp1 (GeneID 20683) | 2 |
| -2.47 (active) | Sp1 (GeneID 20683) | 3 |
| -1.23 | Sp1 (GeneID 20683) | 4 |
| 0.113 | Sp1 (GeneID 20683) | 5 |
| -1.83 (active) | Sp1 (GeneID 20683) | 6 |

13 entries from above, arranged by “mean Tnf reporter z-score”, highest first:
| mean Tnf reporter z-score | Target gene | reagent |
| --- | --- | --- |
| 0.901 | Mapk3 (GeneID 26417) | 2 |
| 0.779 | Map3k1 (GeneID 26401) | 1 |
| 0.682 | Map3k1 (GeneID 26401) | 4 |
| 0.644 | Atf7 (GeneID 223922) | 4 |
| 0.348 | Map3k1 (GeneID 26401) | 6 |
| -0.125 | Mapk3 (GeneID 26417) | 4 |
| -0.152 | Mapk3 (GeneID 26417) | 3 |
| -0.232 | Map3k1 (GeneID 26401) | 5 |
| -0.855 | Atf7 (GeneID 223922) | 5 |
| -1.3 | Mapk3 (GeneID 26417) | 1 |
| -1.37 | Map3k1 (GeneID 26401) | 2 |
| -1.52 (active) | Map3k1 (GeneID 26401) | 3 |
| -1.53 (active) | Atf7 (GeneID 223922) | 6 |

Continued.
| mean Tnf reporter z-score | Target gene | reagent |
| --- | --- | --- |
| -0.208 | Btk (GeneID 12229) | 1 |
| -1.06 | Btk (GeneID 12229) | 2 |
| -0.839 | Btk (GeneID 12229) | 3 |
| -0.666 | Btk (GeneID 12229) | 4 |
| -2.45 (active) | Btk (GeneID 12229) | 5 |
| -3.12 (active) | Btk (GeneID 12229) | 6 |
| -0.9 | Nfkb1 (GeneID 18033) | 1 |
| -2.2 (active) | Nfkb1 (GeneID 18033) | 2 |
| -0.441 | Nfkb1 (GeneID 18033) | 3 |
| -0.497 | Nfkb1 (GeneID 18033) | 4 |
| -1.4 | Nfkb1 (GeneID 18033) | 5 |
| -0.671 | Nfkb1 (GeneID 18033) | 6 |
| 0.176 | Ly86 (GeneID 17084) | 1 |
| -0.727 | Ly86 (GeneID 17084) | 2 |
| -0.406 | Ly86 (GeneID 17084) | 3 |
| 0.595 | Ly86 (GeneID 17084) | 4 |
| 1.52 (active) | Ly86 (GeneID 17084) | 5 |
| -1.23 | Ly86 (GeneID 17084) | 6 |
| 0.502 | Tlr6 (GeneID 21899) | 1 |
| 0.768 | Tlr6 (GeneID 21899) | 2 |
| -1.34 | Tlr6 (GeneID 21899) | 3 |
| 0.553 | Tlr6 (GeneID 21899) | 4 |
| 0.827 | Tlr6 (GeneID 21899) | 5 |
| 0.104 | Tlr6 (GeneID 21899) | 6 |
| 0.112 | Otud5 (GeneID 54644) | 1 |
| -1.34 | Otud5 (GeneID 54644) | 2 |
| -0.899 | Otud5 (GeneID 54644) | 3 |
| -0.683 | Otud5 (GeneID 54644) | 4 |
| -1.58 (active) | Otud5 (GeneID 54644) | 5 |
| -0.6 | Otud5 (GeneID 54644) | 6 |
| 1.04 | Akt1 (GeneID 11651) | 1 |
| -1.77 (active) | Akt1 (GeneID 11651) | 2 |
| 0.492 | Akt1 (GeneID 11651) | 3 |
| 0.00249 | Akt1 (GeneID 11651) | 4 |
| -1.11 | Akt1 (GeneID 11651) | 5 |
| -0.198 | Akt1 (GeneID 11651) | 6 |
| 0.605 | Il1b (GeneID 16176) | 1 |
| -1.33 | Il1b (GeneID 16176) | 2 |
| -0.2 | Il1b (GeneID 16176) | 3 |
| 0.787 | Il1b (GeneID 16176) | 4 |
| -0.352 | Il1b (GeneID 16176) | 5 |
| -0.116 | Il1b (GeneID 16176) | 6 |
| 0.463 | Tbkbp1 (GeneID 73174) | 1 |
| -1.49 | Tbkbp1 (GeneID 73174) | 2 |
| 0.716 | Tbkbp1 (GeneID 73174) | 3 |
| 0.877 | Tbkbp1 (GeneID 73174) | 4 |
| 0.561 | Tbkbp1 (GeneID 73174) | 5 |
| -0.132 | Tbkbp1 (GeneID 73174) | 6 |
| -0.894 | Pik3r3 (GeneID 18710) | 1 |
| 0.917 | Pik3r3 (GeneID 18710) | 2 |
| 0.0601 | Pik3r3 (GeneID 18710) | 3 |
| -0.483 | Pik3r3 (GeneID 18710) | 4 |
| 0.397 | Pik3r3 (GeneID 18710) | 5 |
| -0.69 | Pik3r3 (GeneID 18710) | 6 |
